Numbering of substitutions follows the chain as printed. No constants are given. Whether binding was seen depends on the method and setting. In cells and extracts the contact can be indirect. Here binding means that the protein was enriched with, or labelled near, the bait; the list need not be complete. Blank lines part the entries; values can stand above or below the binder they belong to.
Assays:
[1] = biological target: T1, Venus-XLG2^E293K (Arabidopsis thaliana) (UniProt C6KIE6); experiment: affinity purification with mass spectrometry
T1 sequence: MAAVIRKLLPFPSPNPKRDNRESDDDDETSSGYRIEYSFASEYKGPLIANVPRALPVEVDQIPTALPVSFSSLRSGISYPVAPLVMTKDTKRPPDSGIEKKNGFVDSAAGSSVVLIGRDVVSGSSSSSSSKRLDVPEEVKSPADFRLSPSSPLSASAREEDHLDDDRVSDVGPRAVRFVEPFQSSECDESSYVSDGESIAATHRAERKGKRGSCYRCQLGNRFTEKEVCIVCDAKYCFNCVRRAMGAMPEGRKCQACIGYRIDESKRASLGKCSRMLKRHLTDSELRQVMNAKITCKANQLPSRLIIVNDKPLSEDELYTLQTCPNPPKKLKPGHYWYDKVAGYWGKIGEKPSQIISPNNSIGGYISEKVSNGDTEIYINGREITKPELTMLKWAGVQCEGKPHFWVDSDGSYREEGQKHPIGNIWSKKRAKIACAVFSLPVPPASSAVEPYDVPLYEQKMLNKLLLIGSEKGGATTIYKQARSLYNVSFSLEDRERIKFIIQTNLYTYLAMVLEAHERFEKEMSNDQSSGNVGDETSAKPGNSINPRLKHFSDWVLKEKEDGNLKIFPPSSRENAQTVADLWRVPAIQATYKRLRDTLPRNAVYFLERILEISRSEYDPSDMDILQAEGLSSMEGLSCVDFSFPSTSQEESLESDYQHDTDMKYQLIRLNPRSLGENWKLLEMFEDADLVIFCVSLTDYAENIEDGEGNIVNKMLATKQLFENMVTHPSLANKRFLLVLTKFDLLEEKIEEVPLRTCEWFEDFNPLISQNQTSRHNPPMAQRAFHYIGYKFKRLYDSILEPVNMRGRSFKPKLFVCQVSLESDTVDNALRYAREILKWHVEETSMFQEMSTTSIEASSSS

[2] = biological target: T2, Venus-XLG2 (EXTRA LARGE G-PROTEIN 2, wild type) (Arabidopsis thaliana) (UniProt C6KIE6); experiment: affinity purification with mass spectrometry
T2 sequence: T1 sequence with K293E

binding [1]: binds
binding [2]: binds
B1: PLANT U-BOX 2 (PUB2) (enzyme, UniProt Q5XEZ8 1-707)
chain: MMVHMEVSWLRVLLDNISSYLSLSSMDDLSSNPAHKYYTRGEDIGKLIKPVLENLIDSDAAPSELLNNGFEELAQYVDELREQFQSWQPLSTRIFYVLRIESLASKLRESSLEVFQLLKHCEQHLPADLISPSFEECIELVKLVARDEISYTIDQALKDQKKGVGPTSEVLVKIAESTGLRSNQEILVEGVVLTNMKEDAELTDNDTEAEYLDGLISLTTQMHEYLSDIKQAQLRCPVRVPSDFRCSLSLELMTDPVIVASGQTFERVFIQKWIDMGLMVCPKTRQALSHTTLTPNFIVRAFLASWCETNNVYPPDPLELIHSSEPFPLLVESVRASSSENGHSESLDAEELRQVFSRSASAPGIVSEVVCKTKRNNNAAADRSLTRSNTPWKFPEERHWRHPGIIPATVRETGSSSSIETEVKKLIDDLKSSSLDTQREATARIRILARNSTDNRIVIARCEAIPSLVSLLYSTDERIQADAVTCLLNLSINDNNKSLIAESGAIVPLIHVLKTGYLEEAKANSAATLFSLSVIEEYKTEIGEAGAIEPLVDLLGSGSLSGKKDAATALFNLSIHHENKTKVIEAGAVRYLVELMDPAFGMVEKAVVVLANLATVREGKIAIGEEGGIPVLVEVVELGSARGKENATAALLQLCTHSPKFCNNVIREGVIPPLVALTKSGTARGKEKAQNLLKYFKAHRQSNQRRG

binding [1]: binds
binding [2]: binds
B2: PLANT U-BOX 4 (PUB4) (enzyme, UniProt O22193 1-826)
chain: MEVLLRSISSFLNLSSSKHIDLDPFEKYYKRVEELLRVLKPIADVVVTSDFVFDEKLGKAFEELTQDVDQSIDLFRSWQAFSSKVYFVLQIESLLPKMRDTIVDTFQFLMSSKNHLPDELSPASLEQCLEKIKHLSYEEISSVIDGALRDQRDGVGPSPEILVKIGENTGLRSNQEILIEAVALERQKEMAEQSENNAEVEFLDQLIVIVNRMHERLLLIKQTQTSSVAILADFFCPLSLEVMTDPVIVSSGQTYEKAFIKRWIDLGLKVCPKTRQTLTHTTLIPNYTVKALIANWCETNDVKLPDPNKSTSLNELSPLLSCTDSIPSTGADVSARKVSNKSHDWDASSSETGKPSFSSRATEREGASPSRPASALGASSPGISGNGYGLDARRGSLNDFEDRSNDSRELRTDAPGRSSVSSTTRGSVENGQTSENHHHRSPSATSTVSNEEFPRADANENSEESAHATPYSSDASGEIRSGPLAATTSAATRRDLSDFSPKFMDRRTRGQFWRRPSERLGSRIVSAPSNETRRDLSEVETQVKKLVEELKSSSLDTQRQATAELRLLAKHNMDNRIVIGNSGAIVLLVELLYSTDSATQENAVTALLNLSINDNNKKAIADAGAIEPLIHVLENGSSEAKENSAATLFSLSVIEENKIKIGQSGAIGPLVDLLGNGTPRGKKDAATALFNLSIHQENKAMIVQSGAVRYLIDLMDPAAGMVDKAVAVLANLATIPEGRNAIGQEGGIPLLVEVVELGSARGKENAAAALLQLSTNSGRFCNMVLQEGAVPPLVALSQSGTPRAREKAQALLSYFRNQRHGNAGRG
